The entries are a selection whose mix differs from that of the whole data set. The source made the active and inactive calls. Rule as the data show it: active = inhibition above about 22%; inactive = the rest.
Test: cytotoxicity in IEC-6 intestinal epithelial cells, primary screen, cytotoxicity control for KLF5 inhibitor project, cell-based, luminescence (AID 1825);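 also: 0% = plate median of test compound wells and 100% = cytotoxic reference compound wells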
Settings: IEC-6 cytotoxicity, luminescence viability; at 5 µM; hits give high values
For `COc1ccccc1C(=O)NNC(=S)NC(=O)c1ccco1`, the inhibition was active: 22.7%.

Source: PubChem BioAssay AID1825 (The Scripps Research Institute Molecular Screening Center, 2009)
